Data on two substances can be found in patent US5298490A (Immunobiology Research Institute, Inc., priority 1990, dated 1994).

This series in a line: general procedure: Boc solid-phase peptide synthesis; BHA resin (0.67 meg/g); BOC-(BZLCl2)-Tyr resin ester (0.40 meg/g); DCC/HOBt. Particulars: whole synthesis.

Some peptides are written in HELM: one residue between dots, names in brackets for other building blocks, links after the first $.

PEPTIDE1{[ac].R.P.D.V.[am]}$$$$V2.0: the “crude HPLC purity” value (HPLC, scale of the general procedure 5.0 g (3.35 mmol) of resin) was found to be 98%.
With PEPTIDE1{[ac].R.P.V.A.[am]}$$$$V2.0, the crude mass came to 240 mg and the isolated mass is on record as 167 mg. Also, the isolated yield (overall, scale of the general procedure 5.0 g (3.35 mmol) of resin) came to 50%.
